Experimental findings from article PMC4063869, “Structure of CbpA J-Domain Bound to the Regulatory Protein CbpM Explains Its Specificity and Suggests Evolutionary Link between CbpM and Transcriptional Regulators” (PLoS ONE, 2014) are described below.

These are yes or no findings as the source states them, for the method shown. Some binding calls cover weakened binding; strength is not graded here.

For this assay, the target named is T1, CbpM (residues 2-101), species not named for the experiment (not stated (E. coli K-12 or K. pneumoniae cloned)) (UniProt P63264).
T1 sequence: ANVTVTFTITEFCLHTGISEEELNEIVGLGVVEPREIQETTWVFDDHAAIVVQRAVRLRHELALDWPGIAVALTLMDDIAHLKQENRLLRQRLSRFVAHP
The experiment in a line: SPR; CbpM immobilised, DnaJ^Jdom variants injected (50 µL/min, 120 s); ProteOn XPR36, 25°C, 50 mM sodium phosphate pH 7.4, 100 mM NaCl, 1 mM DTT, 0.005% Tween 20; steady-state equilibrium fit (one site); both purified. On the technique in general: Surface plasmon resonance follows binding to a sensor surface in real time, without labels.
As to “Chimeric DnaJ^Jdom(36-42): DnaJ J-domain with the loop between helices α2 and α3 replaced by that of CbpA^Jdom (from UniProt P08622 2-79) (domain or fragment)”, the binding result was “binds weakly”.

As to “DnaJ^Jdom triple mutant K26R/M30R/R36V (from UniProt P08622 2-79) (domain or fragment)”, the binding result was “binds weakly”.

As for “Wild-type J-domain of E. coli DnaJ (DnaJ^Jdom, residues 2-79) (from UniProt P08622 2-79) (domain or fragment)”, the binding result was “no binding”.
